Measured values as given in patent US20040096392A1.
Results are given in words; binding and its absence hold for the method and conditions named. Some results given as binding are weak or reduced against the parent protein; the word gives no strength.

Target: T1, TMEFF2 protein on the cell surface (PC3-TMEFF2 cells, LnCAP cells, cancer cell lines) (UniProt Q9UIK5)
T1 sequence (looked up): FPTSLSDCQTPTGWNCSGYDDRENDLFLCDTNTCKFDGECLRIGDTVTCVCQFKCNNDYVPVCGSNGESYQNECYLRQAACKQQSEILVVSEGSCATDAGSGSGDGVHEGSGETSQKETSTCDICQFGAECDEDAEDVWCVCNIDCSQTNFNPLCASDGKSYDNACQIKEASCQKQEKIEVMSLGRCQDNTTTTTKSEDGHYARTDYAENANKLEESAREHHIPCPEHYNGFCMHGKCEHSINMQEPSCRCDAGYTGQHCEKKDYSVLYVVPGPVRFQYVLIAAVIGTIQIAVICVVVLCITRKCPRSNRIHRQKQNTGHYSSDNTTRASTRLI
Assay: FACS on cancer cell lines

binding: binds
B1: TMEFF2#19 (ATCC Accession No. PTA-4127) (antibody, V domains shown)
VH: DVQLQESGPGLVKPSQSLSLTCSVTGYSITSGYYWSWIRQFPGNKLEWMGFISYDGSNKYNPSLKNRISITRDTSENQFFLNLRSVTTEDTATYYCARGLRRGDYSMDYWGQGTSVTVSS
VL: DIVMTQSQKFMSTSVGDSVSITCKASQNVVTAVAWYRQKPGQSPKLLIYSASNRHTGVPDRFTGSGSGTDFTLTINNMQSEDLADYFCQQYSSYPFTFGGGTKLEIK
